Laboratory results from the supplement of paper PMC7024190.
Counter-ions that a name gives are not always drawn. This is one part of the list. This data set is noisy: repeats of one test often differ as much as different tests do.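 A first-round screen of about ten thousand compounds sought those raising reporter output, using human embryonic kidney cells briefly transfected with a plasmid carrying a Renilla luciferase gene driven by the HSV-TK promoter.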

These compounds were tested on HEK 293FT (assay: log relative Renilla luciferase luminescence (reporter expression vs reference, reference not stated) (log (base not stated)); higher = higher recombinant reporter expression). Settings: 10 µM; time after transfection 48 h.
Work on CC[C@H](C)C(=O)O[C@H]1C[C@@H](C)C=C2C=C[C@H](C)[C@H](CC[C@@H]3C[C@@H](O)CC(=O)O3)[C@H]21 [Lovastatin] yielded a log of 0.109. With O=C(Cc1ccccc1)Nc1nc2ccc(Cl)cc2c2nc(-c3ccco3)nn12 the log was 0.2. c1nc(CC2CCNCC2)c[nH]1 [Immepip dihydrobromide] showed a log of -0.00432. COc1ccc(-c2nc(C(=O)N3CCN(C)CC3)sc2-c2ccc(OC)cc2)cc1 was tested, and the log was 0.154. In the case of CN(CC[C@@H](Oc1ccc(-c2ccccc2)cc1)c1ccc(F)cc1)CC(=O)O [ALX 5407 hydrochloride], the log is reported as 0.0748. For C=CCn1c(=O)n([C@@H]2O[C@H](CO)[C@@H](O)[C@H]2O)c2nc(N)[nH]c(=O)c21, the log was -0.0637. Cc1[nH]c(/C=C2\C(=O)Nc3ccc(S(=O)(=O)Cc4c(Cl)cccc4Cl)cc32)c(C)c1C(=O)N1CCC[C@@H]1CN1CCCC1 showed a log of -0.104. O=c1[nH]c2cc(Cl)ccc2c(O)c1-c1cccc(Oc2ccccc2)c1 gave a log of -0.0428. O=C1c2ccccc2C(Cc2ccnc(F)c2)(Cc2ccnc(F)c2)c2ccccc21 was tested, and the log was 0.0437. With CCCc1c(OCC(O)COc2ccc3c(=O)cc(C(=O)O)oc3c2CCC)ccc(C(C)=O)c1O (stereo not given) the log was 0.0191. CN1CC(=O)N=C1NC(=O)Nc1cccc(Cl)c1 [Fenobam] showed a log of -0.139. CCOC(=O)[C@]12CC1/C(=N\O)c1ccccc1O2 (stereo not given in full) was tested, and the log was -0.138. COc1ccc2[nH]cc(CCNC(C)=O)c2c1 [Melatonin] showed a log of 0.0363. O=C(O)c1ccc(C=C2SC(=S)N(c3cccc(C(F)(F)F)c3)C2=O)cc1 was tested, and the log was -0.355. With Oc1cc(O)cc(/C=C/c2ccc(O)c(O)c2)c1 [Piceatannol] the log was 0.203. In the case of CN(C)[C@@H]1CCc2[nH]c3ccc(NC(=O)c4ccc(F)cc4)cc3c2C1, the log is reported as 0.0836. Compound CC(C)C1C2CCC(C2)C1N (stereo not given) has a log of 0.00532. COC(=O)c1sccc1S(=O)(=O)Nc1ccc(Nc2ccccc2)cc1OC was tested, and the log was 0.0139. COc1cccc(CCc2ccccc2OCC[C@@H]2C[C@@H](O)CN2C)c1 gave a log of 0.0895. With COC(=O)[C@@H]1CC2=CC(=O)CC[C@]2(C)[C@@]23O[C@@H]2C[C@@]2(C)[C@@H](CC[C@@]24CCC(=O)O4)[C@H]13 [Eplerenone] the log was -0.0681. With CC(C)NCC(O)COc1cccc2ccccc12 (stereo not given) [Propranolol hydrochloride] the log was 0.0219. With Fc1ccc(C(c2ccc(F)cc2)N2CCN(C/C=C/c3ccccc3)CC2)cc1 [Flunarizine dihydrochloride] the log was 0.0898. Nc1nc(N)nc(-c2cc(Cl)ccc2Cl)n1 [Irsogladine maleate] gave a log of -0.121. CC(C)[N+]1(C)[C@@H]2CC[C@H]1C[C@@H](OC(=O)C(CO)c1ccccc1)C2 (stereo not given in full) [Ipratropium bromide] showed a log of -0.0572. O=[N+]([O-])c1ccccc1S(=O)(=O)NCC1CCC(CNCC2CCc3ccccc3C2)CC1 (stereo not given) [NTNCB hydrochloride] was tested, and the log was 0.0701. In the case of O=C(O)c1cc(=O)c2ccccc2[nH]1 [Kynurenic acid], the log is reported as -0.302. Compound O=C(NCCCCN1CCN(c2cccc(Cl)c2Cl)CC1)c1ccc2c(c1)Cc1ccccc1-2 has a log of -0.0719. Work on O=C(O)CCc1ccc(NCc2cccc(Oc3ccccc3)c2)cc1 yielded a log of -0.0364. CC(=O)NCC(=O)N[C@H](CCC(=O)O)C(=O)O [N-Acetylglycyl-D-glutamic acid] was tested, and the log was 0.0389. In the case of c1ccc(N2CCN(CCCOc3ccc4c(c3)OCO4)CC2)cc1 [BP 554 maleate], the log is reported as 0.0729. With O=C(O)CCC/C=C\CC1C(O)CC(O)C1/C=C/C(O)COc1cccc(Cl)c1 (racemic) [(±)-Cloprostenol sodium salt] the log was -0.121. Work on O=C1C(SCCO)=C(SCCO)C(=O)c2ccccc21 yielded a log of -0.614. COc1ccccc1C1(O)CCN(CCCn2c3ccccc3c3ccccc32)CC1 [NNC 05-2090 hydrochloride] showed a log of -0.012. O=C(NCCO[N+](=O)[O-])c1cccnc1 [Nicorandil] gave a log of -0.0452. Work on CC12CC3CC(C)(C1)CC(N)(C3)C2 [Memantine hydrochloride] yielded a log of 0.023. Compound CCCCCCCCCCCCCCCC(=O)NCCO [Palmitoylethanolamide] has a log of -0.0983. Cc1c(C(=O)N(C)C2CCCCC2)sc2nc3ccc(N)cc3n12 gave a log of 0.0175. CC1(CN2CCC(n3c(=O)[nH]c4ccccc43)CC2)OCc2ccccc2-n2cccc21 (stereo not given) showed a log of -0.241. CN(CCc1ccc(Cl)c(Cl)c1)CC(O)COc1ccc(NS(C)(=O)=O)cc1 (stereo not given) was tested, and the log was -0.135. For COc1ccc(Nc2nccc(NCCO)n2)cc1 [Cardiogenol C hydrochloride], the log was -0.0475.
